# No constants are given. Whether binding was seen depends on the method and setting. Binding seen in cells or lysates may run through a third protein. A yes stands for co-enrichment or nearness to the bait. Other partners may have been found.
# Sequences of proteins named here, by UniProt entry; tags and fusion partners are left off.
# UniProt Q9HC98: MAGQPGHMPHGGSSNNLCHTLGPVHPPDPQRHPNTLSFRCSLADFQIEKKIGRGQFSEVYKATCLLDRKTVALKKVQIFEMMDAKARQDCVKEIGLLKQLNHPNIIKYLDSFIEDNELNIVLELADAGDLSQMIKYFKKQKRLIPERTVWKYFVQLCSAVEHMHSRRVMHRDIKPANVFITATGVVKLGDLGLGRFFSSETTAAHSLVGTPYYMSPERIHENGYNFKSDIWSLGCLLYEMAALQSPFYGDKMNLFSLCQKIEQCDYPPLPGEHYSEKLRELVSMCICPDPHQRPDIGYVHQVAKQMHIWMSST
# UniProt P67809: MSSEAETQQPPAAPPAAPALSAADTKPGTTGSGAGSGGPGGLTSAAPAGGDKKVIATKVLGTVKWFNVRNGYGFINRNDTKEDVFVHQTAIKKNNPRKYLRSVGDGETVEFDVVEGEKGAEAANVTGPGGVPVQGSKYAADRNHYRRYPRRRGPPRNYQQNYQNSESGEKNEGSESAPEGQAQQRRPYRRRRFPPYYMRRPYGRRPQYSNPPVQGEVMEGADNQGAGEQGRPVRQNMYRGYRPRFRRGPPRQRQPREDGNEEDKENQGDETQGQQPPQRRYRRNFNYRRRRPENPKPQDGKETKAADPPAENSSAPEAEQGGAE
# Biological target: 3×Flag-tagged NEK6 (NIMA-related kinase-6) (UniProt Q9HC98)
# Experiment: affinity purification with mass spectrometry; Flag-NEK6 precipitated from 293T lysate with anti-Flag beads at 4 °C overnight; beads washed five times with buffer containing 10 μg/mL RNase A; eluate resolved by SDS-PAGE, Coomassie staining, LC-MS/MS; empty vector as control
substance,measurement,value
"Y-box-binding protein 1 (YBX1), endogenous in 293T cells (from UniProt P67809 1-324)",binding,binds
